{"source": "the supplement of paper PMC8728848", "binders": {"B1": {"name": "Pwp7 (Candida glabrata) (protein)", "chain": "MGSSHHHHHHSSGLVPRGSHMASKNPVDFPNLCQYPNLDGAVAGFDTEIYNADPSILINFSLWPILQFPKEWHKTIGRAITTQTNFKLPASDTTLFGVSIPTQNILIEFRGYFIPPKSGTYTFALYLTDDGSAMFLGNDAAFPCGNITSWSNPTNDQVSVSDYDPKKKTLTVYMVAGVAYPLRIAYYNREKGGSLTASFVDPDGLTHSDWNGYIWTLPSCDNCKYS"}}, "experiment_in_all_cases": "glycan array binding signal (z-score within array); higher = stronger binding", "settings_in_all_cases": "glycan notation: IUPAC condensed, linker removed", "key": {"[1]": {"biological_target": "GlcNAc(b1-4)GlcNAc(b1-4)GlcNAc(b1-4)GlcNAc(b1-4)GlcNAc(b1-4)GlcNAc", "summary_of_the_method": "(§1)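 Columns mapping to the same glycan were averaged after glycan names were converted to IUPAC-condensed notation. The data come from 3228 arrays in the Consortium for Functional Glycomics database, limited to those with an available protein sequence. Binding is reported as a within-array Z-score averaged across arrays of one protein sequence and across linkers.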"}, "[2]": {"biological_target": "GlcNAc(b1-4)[GlcNAc(b1-6)]GalNAc", "summary_of_the_method": "as §1"}, "[3]": {"biological_target": "GlcNAc(b1-6)Gal(b1-4)GlcNAc", "summary_of_the_method": "as §1"}, "GlcNAc(b1-6)GalNAc": {"biological_target": "GlcNAc(b1-6)GalNAc", "summary_of_the_method": "as §1"}, "[4]": {"biological_target": "GlcNAc6S(b1-3)Gal(b1-4)GlcNAc", "summary_of_the_method": "as §1"}, "Kdn(a2-3)Gal(b1-3)GalNAc": {"biological_target": "Kdn(a2-3)Gal(b1-3)GalNAc", "summary_of_the_method": "as §1"}, "Kdn(a2-3)Gal(b1-3)GlcNAc": {"biological_target": "Kdn(a2-3)Gal(b1-3)GlcNAc", "summary_of_the_method": "as §1"}, "Kdn(a2-3)Gal(b1-4)Glc": {"biological_target": "Kdn(a2-3)Gal(b1-4)Glc", "summary_of_the_method": "as §1"}, "Kdn(a2-3)Gal(b1-4)GlcNAc": {"biological_target": "Kdn(a2-3)Gal(b1-4)GlcNAc", "summary_of_the_method": "as §1"}, "[5]": {"biological_target": "Kdn(a2-3)Gal(b1-4)[Fuc(a1-3)]GlcNAc", "summary_of_the_method": "as §1"}, "Kdn(a2-6)Gal(b1-4)GlcNAc": {"biological_target": "Kdn(a2-6)Gal(b1-4)GlcNAc", "summary_of_the_method": "as §1"}, "[6]": {"biological_target": "Man(a1-2)Man(a1-2)Man(a1-3)Man", "summary_of_the_method": "as §1"}, "[7]": {"biological_target": "Man(a1-2)Man(a1-2)Man(a1-6)[Man(a1-3)]Man", "summary_of_the_method": "as §1"}, "Man(a1-2)Man(a1-3)Man": {"biological_target": "Man(a1-2)Man(a1-3)Man", "summary_of_the_method": "as §1"}, "[8]": {"biological_target": "Man(a1-2)Man(a1-3)[Man(a1-2)Man(a1-6)]Man", "summary_of_the_method": "as §1"}, "[9]": {"biological_target": "Man(a1-2)Man(a1-3)[Man(a1-2)Man(a1-6)]Man(a1-6)[Man(a1-2)Man(a1-2)Man(a1-3)]Man", "summary_of_the_method": "as §1"}, "[10]": {"biological_target": "Man(a1-2)Man(a1-3)[Man(a1-2)Man(a1-6)]Man(a1-6)[Man(a1-2)Man(a1-2)Man(a1-3)]Man(b1-4)GlcNAc(b1-4)GlcNAc", "summary_of_the_method": "as §1"}, "[11]": {"biological_target": "Man(a1-2)Man(a1-3)[Man(a1-6)]Man(a1-6)[Man(a1-2)Man(a1-3)]Man(b1-4)GlcNAc(b1-4)GlcNAc", "summary_of_the_method": "as §1"}, "[12]": {"biological_target": "Man(a1-2)Man(a1-6)[Man(a1-3)]Man(a1-6)[Man(a1-2)Man(a1-2)Man(a1-3)]Man", "summary_of_the_method": "as §1"}, "[13]": {"biological_target": "Man(a1-2)Man(a1-6)[Man(a1-3)]Man(a1-6)[Man(a1-2)Man(a1-2)Man(a1-3)]Man(b1-4)GlcNAc(b1-4)GlcNAc", "summary_of_the_method": "as §1"}, "Man(a1-3)[Man(a1-6)]Man": {"biological_target": "Man(a1-3)[Man(a1-6)]Man", "summary_of_the_method": "as §1"}, "[14]": {"biological_target": "Man(a1-3)[Man(a1-6)]Man(a1-6)[Man(a1-2)Man(a1-3)]Man(b1-4)GlcNAc(b1-4)GlcNAc", "summary_of_the_method": "as §1"}, "[15]": {"biological_target": "Man(a1-3)[Man(a1-6)]Man(a1-6)[Man(a1-3)]Man", "summary_of_the_method": "as §1"}, "[16]": {"biological_target": "Man(a1-3)[Man(a1-6)]Man(a1-6)[Man(a1-3)]Man(b1-4)GlcNAc(b1-4)GlcNAc", "summary_of_the_method": "as §1"}, "[17]": {"biological_target": "Man(a1-3)[Man(a1-6)]Man(b1-4)GlcNAc(b1-4)GlcNAc", "summary_of_the_method": "as §1"}, "[18]": {"biological_target": "Man(a1-3)[Man(a1-6)]Man(b1-4)GlcNAc(b1-4)[Fuc(a1-6)]GlcNAc", "summary_of_the_method": "as §1"}, "Man(a1-6)Man": {"biological_target": "Man(a1-6)Man", "summary_of_the_method": "as §1"}, "Man(b1-4)GlcNAc": {"biological_target": "Man(b1-4)GlcNAc", "summary_of_the_method": "as §1"}, "MurNAc(b1-4)GlcNAc": {"biological_target": "MurNAc(b1-4)GlcNAc", "summary_of_the_method": "as §1"}, "Neu5Ac(a2-3)Gal": {"biological_target": "Neu5Ac(a2-3)Gal", "summary_of_the_method": "as §1"}, "[19]": {"biological_target": "Neu5Ac(a2-3)Gal(b1-3)GalNAc", "summary_of_the_method": "as §1"}, "[20]": {"biological_target": "Neu5Ac(a2-3)Gal(b1-3)GalNAc(b1-3)Gal(a1-4)Gal(b1-4)Glc", "summary_of_the_method": "as §1"}, "[21]": {"biological_target": "Neu5Ac(a2-3)Gal(b1-3)GalNAc(b1-4)Gal(b1-4)Glc", "summary_of_the_method": "as §1"}, "[22]": {"biological_target": "Neu5Ac(a2-3)Gal(b1-3)GalNAc(b1-4)[Neu5Ac(a2-3)]Gal(b1-4)Glc", "summary_of_the_method": "as §1"}, "[23]": {"biological_target": "Neu5Ac(a2-3)Gal(b1-3)GalNAc(b1-4)[Neu5Ac(a2-8)Neu5Ac(a2-3)]Gal(b1-4)Glc", "summary_of_the_method": "as §1"}, "[24]": {"biological_target": "Neu5Ac(a2-3)Gal(b1-3)GalNAc6S", "summary_of_the_method": "as §1"}, "[25]": {"biological_target": "Neu5Ac(a2-3)Gal(b1-3)GlcNAc", "summary_of_the_method": "as §1"}, "[26]": {"biological_target": "Neu5Ac(a2-3)Gal(b1-3)GlcNAc(b1-2)Man", "summary_of_the_method": "as §1"}, "[27]": {"biological_target": "Neu5Ac(a2-3)Gal(b1-3)GlcNAc(b1-2)Man(a1-3)[GlcNAc(b1-4)][Neu5Ac(a2-3)Gal(b1-3)GlcNAc(b1-2)Man(a1-6)]Man(b1-4)GlcNAc(b1-4)GlcNAc", "summary_of_the_method": "as §1"}, "[28]": {"biological_target": "Neu5Ac(a2-3)Gal(b1-3)GlcNAc(b1-2)Man(a1-3)[Neu5Ac(a2-3)Gal(b1-3)GlcNAc(b1-2)Man(a1-6)]Man(b1-4)GlcNAc(b1-4)GlcNAc", "summary_of_the_method": "as §1"}, "[29]": {"biological_target": "Neu5Ac(a2-3)Gal(b1-3)GlcNAc(b1-2)[Neu5Ac(a2-3)Gal(b1-3)GlcNAc(b1-4)]Man(a1-6)[Neu5Ac(a2-3)Gal(b1-3)GlcNAc(b1-2)Man(a1-3)]Man(b1-4)GlcNAc(b1-4)GlcNAc", "summary_of_the_method": "as §1"}, "[30]": {"biological_target": "Neu5Ac(a2-3)Gal(b1-3)GlcNAc(b1-3)Gal(b1-3)GlcNAc", "summary_of_the_method": "as §1"}, "[31]": {"biological_target": "Neu5Ac(a2-3)Gal(b1-3)GlcNAc(b1-3)Gal(b1-4)GlcNAc", "summary_of_the_method": "as §1"}, "[32]": {"biological_target": "Neu5Ac(a2-3)Gal(b1-3)GlcNAc(b1-3)GalNAc", "summary_of_the_method": "as §1"}, "[33]": {"biological_target": "Neu5Ac(a2-3)Gal(b1-3)GlcNAc(b1-6)GalNAc", "summary_of_the_method": "as §1"}}, "note": "The list shows a part of the results.", "data": [{"binder": "B1", "values": [{"measurement": "glycan array binding signal (z-score)", "setting": "[1]", "result": 1.15}, {"measurement": "glycan array binding signal (z-score)", "setting": "[2]", "result": -0.599}, {"measurement": "glycan array binding signal (z-score)", "setting": "[3]", "result": -0.602}, {"measurement": "glycan array binding signal (z-score)", "setting": "GlcNAc(b1-6)GalNAc", "result": -0.569}, {"measurement": "glycan array binding signal (z-score)", "setting": "[4]", "result": -0.92}, {"measurement": "glycan array binding signal (z-score)", "setting": "Kdn(a2-3)Gal(b1-3)GalNAc", "result": 0.995}, {"measurement": "glycan array binding signal (z-score)", "setting": "Kdn(a2-3)Gal(b1-3)GlcNAc", "result": 0.536}, {"measurement": "glycan array binding signal (z-score)", "setting": "Kdn(a2-3)Gal(b1-4)Glc", "result": 0.185}, {"measurement": "glycan array binding signal (z-score)", "setting": "Kdn(a2-3)Gal(b1-4)GlcNAc", "result": -0.166}, {"measurement": "glycan array binding signal (z-score)", "setting": "[5]", "result": -0.239}, {"measurement": "glycan array binding signal (z-score)", "setting": "Kdn(a2-6)Gal(b1-4)GlcNAc", "result": -0.857}, {"measurement": "glycan array binding signal (z-score)", "setting": "[6]", "result": -0.713}, {"measurement": "glycan array binding signal (z-score)", "setting": "[7]", "result": -0.05}, {"measurement": "glycan array binding signal (z-score)", "setting": "Man(a1-2)Man(a1-3)Man", "result": -0.678}, {"measurement": "glycan array binding signal (z-score)", "setting": "[8]", "result": -0.675}, {"measurement": "glycan array binding signal (z-score)", "setting": "[9]", "result": -0.503}, {"measurement": "glycan array binding signal (z-score)", "setting": "[10]", "result": 0.024}, {"measurement": "glycan array binding signal (z-score)", "setting": "[11]", "result": -0.415}, {"measurement": "glycan array binding signal (z-score)", "setting": "[12]", "result": -0.467}, {"measurement": "glycan array binding signal (z-score)", "setting": "[13]", "result": -0.429}, {"measurement": "glycan array binding signal (z-score)", "setting": "Man(a1-3)[Man(a1-6)]Man", "result": -1.03}, {"measurement": "glycan array binding signal (z-score)", "setting": "[14]", "result": -0.076}, {"measurement": "glycan array binding signal (z-score)", "setting": "[15]", "result": 2.11}, {"measurement": "glycan array binding signal (z-score)", "setting": "[16]", "result": 0.871}, {"measurement": "glycan array binding signal (z-score)", "setting": "[17]", "result": -0.347}, {"measurement": "glycan array binding signal (z-score)", "setting": "[18]", "result": 0.822}, {"measurement": "glycan array binding signal (z-score)", "setting": "Man(a1-6)Man", "result": -1.42}, {"measurement": "glycan array binding signal (z-score)", "setting": "Man(b1-4)GlcNAc", "result": -0.826}, {"measurement": "glycan array binding signal (z-score)", "setting": "MurNAc(b1-4)GlcNAc", "result": -0.426}, {"measurement": "glycan array binding signal (z-score)", "setting": "Neu5Ac(a2-3)Gal", "result": -0.604}, {"measurement": "glycan array binding signal (z-score)", "setting": "[19]", "result": 0.382}, {"measurement": "glycan array binding signal (z-score)", "setting": "[20]", "result": 0.137}, {"measurement": "glycan array binding signal (z-score)", "setting": "[21]", "result": -0.101}, {"measurement": "glycan array binding signal (z-score)", "setting": "[22]", "result": 0.447}, {"measurement": "glycan array binding signal (z-score)", "setting": "[23]", "result": 0.438}, {"measurement": "glycan array binding signal (z-score)", "setting": "[24]", "result": 0.695}, {"measurement": "glycan array binding signal (z-score)", "setting": "[25]", "result": -0.487}, {"measurement": "glycan array binding signal (z-score)", "setting": "[26]", "result": 0.574}, {"measurement": "glycan array binding signal (z-score)", "setting": "[27]", "result": 0.375}, {"measurement": "glycan array binding signal (z-score)", "setting": "[28]", "result": -0.273}, {"measurement": "glycan array binding signal (z-score)", "setting": "[29]", "result": 1.42}, {"measurement": "glycan array binding signal (z-score)", "setting": "[30]", "result": 0.274}, {"measurement": "glycan array binding signal (z-score)", "setting": "[31]", "result": -0.467}, {"measurement": "glycan array binding signal (z-score)", "setting": "[32]", "result": 0.451}, {"measurement": "glycan array binding signal (z-score)", "setting": "[33]", "result": -0.201}]}]}
